Some of these results come from one statement about several compounds together.
Legend:
[1] = test system: cucumber anthracnose fungus (Colletotrichum lagenarium); experiment: Test Example 10: cucumber anthracnose control, foliar spray on cucumber; assay type: in vivo; conditions: 200 ppm, cucumber (SAGAMI HANJIRO), inoculated one day after spraying
[2] = test system: kidney bean stem rot fungus (Sclerotinia sclerotiorum); experiment: Test Example 4: kidney bean stem rot control, foliar spray on kidney bean; conditions: 500 ppm, kidney bean (NAGAUZURA SAITOU), four days after the inoculation
[3] = test system: rice blast fungus (Magnaporthe grisea); assay type: in vivo; conditions: 500 ppm, foliar spray, rice (NIHONBARE), 6 days in contact with infected seedling
[4] = test system: wheat rust fungus (Puccinia recondita); experiment: Test Example 2: wheat rust control, foliar spray on wheat; assay type: in vivo; conditions: 500 ppm, wheat (SHIROGANE), inoculated 5 days after spraying
[5] = test system: wheat leaf blotch fungus (Septoria tritici); experiment: Test Example 5: wheat leaf blotch control, foliar spray on wheat; assay type: in vivo; conditions: 200 ppm, wheat (APOGEE), inoculated 4 days after spraying
[6] = test system: cotton aphid (Aphis gossypii); experiment: Test Example 11: cotton aphid control on cucumber leaves, spray; assay type: in vivo; conditions: 500 ppm active ingredient (formulation per Formulation Example 2), 20 mL sprayed, surviving insects counted after 6 days
[7] = test system: barley net blotch fungus (Pyrenophora teres); experiment: Test Example 3: barley net blotch control, foliar spray on barley; assay type: in vivo; conditions: 500 ppm, barley (NISHINOHOSHI), inoculated 2 days after spraying
[8] = test system: soybean rust fungus (Phakopsora pachyrhizi); experiment: Test Example 7: soybean rust control, foliar spray on soybean; assay type: in vivo; conditions: 200 ppm, soybean (KUROSENGOKU), inoculated 2 days after spraying
[9] = test system: barley scald fungus (Rhynchosporiumsecalis); experiment: Test Example 8: barley scald control, foliar spray on barley; assay type: in vivo, Rhynchosporium secalis; conditions: 200 ppm, barley (NISHINOHOSHI), inoculated 2 days after spraying
[10] = test system: cucumber target leaf spot fungus (Corynespora cassiicola); experiment: Test Example 9: cucumber target leaf spot control, foliar spray on cucumber; assay type: in vivo; conditions: 200 ppm, cucumber (SAGAMI HANJIRO), inoculated one day after spraying

| SMILES | area of lesion on treated plant relative to that on an untreated plant [1] | area of lesion on treated plant relative to that on an untreated plant [2] | lesion area on treated plant with respect to the lesion area on the non-treated plant [3] | area of lesion on treated plant relative to that on an untreated plant [4] | area of lesion on treated plant relative to that on an untreated plant [5] | control value [6] | area of lesion on treated plant relative to that on an untreated plant [7] | area of lesion on treated plant relative to that on an untreated plant [8] | area of lesion on treated plant relative to that on an untreated plant [9] | area of lesion on treated plant relative to that on an untreated plant [10] |
| --- | --- | --- | --- | --- | --- | --- | --- | --- | --- | --- |
| COC(=O)Nc1cccc(C2CC2)c1COc1ccc(-c2nn(C)c(Cl)c2C)cc1C [Present Compound 19] | ≤ 30% | ≤ 30% | ≤ 30% | ≤ 30% | ≤ 30% | ≥ 90% | ≤ 30% | ≤ 30% | ≤ 30% |  |
| COC(=O)Nc1cccc(C)c1COc1ccc(-c2nn(C)c(C)c2C)cc1C [Present Compound 34] | ≤ 30% | ≤ 30% | ≤ 30% | ≤ 30% | ≤ 30% |  | ≤ 30% | ≤ 30% | ≤ 30% | ≤ 30% |
| COC(=O)Nc1ccccc1COc1ccc(-c2nn(C)c(F)c2C)cc1C [Present Compound 21] | ≤ 30% | ≤ 30% | ≤ 30% | ≤ 30% | ≤ 30% | ≥ 90% | ≤ 30% | ≤ 30% | ≤ 30% |  |
| COC(=O)Nc1cccc(C)c1COc1ccc(-c2nn(C)c(Cl)c2C(F)F)cc1C [Present Compound 32] | ≤ 30% | ≤ 30% | ≤ 30% | ≤ 30% | ≤ 30% | ≥ 90% | ≤ 30% | ≤ 30% | ≤ 30% |  |
| COC(=O)Nc1ccc(C)cc1COc1ccc(-c2nn(C)c(Cl)c2C)cc1C [Present Compound 27] | ≤ 30% | ≤ 30% | ≤ 30% | ≤ 30% | ≤ 30% | ≥ 90% | ≤ 30% | ≤ 30% | ≤ 30% |  |
| COC(=O)Nc1c(C)cccc1COc1ccc(-c2nn(C)c(F)c2C)cc1C [Present Compound 31] | ≤ 30% | ≤ 30% | ≤ 30% | ≤ 30% | ≤ 30% | ≥ 90% | ≤ 30% | ≤ 30% | ≤ 30% | ≤ 30% |
| COC(=O)Nc1ccc(C)cc1COc1ccc(-c2nn(C)c(F)c2C)cc1C [Present Compound 29] | ≤ 30% | ≤ 30% | ≤ 30% | ≤ 30% | ≤ 30% | ≥ 90% | ≤ 30% | ≤ 30% | ≤ 30% |  |
| COC(=O)Nc1cccc(OC)c1COc1ccc(-c2nn(C)c(C)c2C)cc1C [Present Compound 35] | ≤ 30% | ≤ 30% | ≤ 30% | ≤ 30% | ≤ 30% | ≥ 90% | ≤ 30% | ≤ 30% | ≤ 30% |  |

Reference: patent US9788547B2, “Aromatic compound and uses thereof” (SUMITOMO CHEMICAL COMPANY, LIMITED, priority 2014, dated 2017)
